# Laboratory results as given in the supplement of paper PMC8728848.
# Some of the results follow.
# B1: B3GalT2 (Rattus norvegicus) (protein)
# chain: LMLQWRRRHCCFAKMSWNAKRSLFRTHLMGVLSLVFLFAMFLFFNHHDWLPGRPGFKENPVTYTFRGFRSTKTETNQSSLRNIWKEVVPQTLRPQTATNSNNTELSPQGVTGLENTLSANGSIYNEKGTGHPNSYHFKYIINEPEKCQEKSPFLILLIAAEPGQIEARRAIRQTWGNETLAPGIQITRIFLLGISIKLNGYLQHAIQEESIQYHDIIQQEYLDTYYNLTIKTLMGMNWVATYCPHTPYVMKTDSDMFVNTEYLIHKLLKPDLPPRHNYFTGYLMRGYAPNRNKDSKWYMPPDLYPSERYPVFCSGTGYVFSGDLAEKIFKVSLGIRRLHLEDVYVGICLAKLRVDPVPPPNEFVFNHWRVSYSSCKYSHLITSHQFQPSELIKYWNHLQQNKHNACVNAAKEKAGRYRHRKLH
# Assays:
# Experiment in all cases: glycan array binding signal (z-score within array); higher = stronger binding
# Conditions in all cases: glycan notation: IUPAC condensed, linker removed
# [1] = molecular target: Neu5Ac(a2-3)Gal(b1-4)GlcNAc(b1-6)GalNAc
# Procedure, shortened: (§1)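 Glycan array data were curated from 3228 arrays in the Consortium for Functional Glycomics database and kept only where the protein sequence was available. Glycan names were converted to IUPAC-condensed notation, and columns mapping to the same glycan were averaged. The binding signal is a within-array Z-score, averaged across arrays of the same protein sequence at different concentrations or buffers and across linkers. Negative Z-scores can be read as non-binding.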
# [2] = molecular target: Neu5Ac(a2-3)Gal(b1-4)GlcNAc(b1-6)[Gal(b1-3)]GalNAc
# Procedure, shortened: as §1
# [3] = molecular target: Neu5Ac(a2-3)Gal(b1-4)GlcNAc(b1-6)[Neu5Ac(a2-3)Gal(b1-3)]GalNAc
# Procedure, shortened: as §1
# [4] = molecular target: Neu5Ac(a2-3)Gal(b1-4)GlcNAc6S
# Procedure, shortened: as §1
# [5] = molecular target: Neu5Ac(a2-3)Gal(b1-4)[Fuc(a1-3)]GlcNAc
# Procedure, shortened: as §1
# [6] = molecular target: Neu5Ac(a2-3)Gal(b1-4)[Fuc(a1-3)]GlcNAc(b1-2)Man
# Procedure, shortened: as §1
# [7] = molecular target: Neu5Ac(a2-3)Gal(b1-4)[Fuc(a1-3)]GlcNAc(b1-3)Gal
# Procedure, shortened: as §1
# [8] = molecular target: Neu5Ac(a2-3)Gal(b1-4)[Fuc(a1-3)]GlcNAc(b1-3)Gal(b1-4)GlcNAc
# Procedure, shortened: as §1
# [9] = molecular target: Neu5Ac(a2-3)Gal(b1-4)[Fuc(a1-3)]GlcNAc(b1-3)Gal(b1-4)[Fuc(a1-3)]GlcNAc(b1-3)Gal(b1-4)[Fuc(a1-3)]GlcNAc
# Procedure, shortened: as §1
# [10] = molecular target: Neu5Ac(a2-3)Gal(b1-4)[Fuc(a1-3)]GlcNAc(b1-3)GalNAc
# Procedure, shortened: as §1
# [11] = molecular target: Neu5Ac(a2-3)Gal(b1-4)[Fuc(a1-3)]GlcNAc(b1-6)[Gal(b1-3)]GalNAc
# Procedure, shortened: as §1
# [12] = molecular target: Neu5Ac(a2-3)Gal(b1-4)[Fuc(a1-3)]GlcNAc(b1-6)[Neu5Ac(a2-3)Gal(b1-3)]GalNAc
# Procedure, shortened: as §1
# [13] = molecular target: Neu5Ac(a2-3)Gal(b1-4)[Fuc(a1-3)]GlcNAc6S
# Procedure, shortened: as §1
# [14] = molecular target: Neu5Ac(a2-3)Gal6S(b1-4)GlcNAc
# Procedure, shortened: as §1
# [15] = molecular target: Neu5Ac(a2-3)Gal6S(b1-4)[Fuc(a1-3)]GlcNAc
# Procedure, shortened: as §1
# [16] = molecular target: Neu5Ac(a2-3)GalNAc
# Procedure, shortened: as §1
# [17] = molecular target: Neu5Ac(a2-3)GalNAc(b1-4)GlcNAc
# Procedure, shortened: as §1
# [18] = molecular target: Neu5Ac(a2-3)[GalNAc(b1-4)]Gal(b1-4)Glc
# Procedure, shortened: as §1
# [19] = molecular target: Neu5Ac(a2-3)[GalNAc(b1-4)]Gal(b1-4)GlcNAc
# Procedure, shortened: as §1
# [20] = molecular target: Neu5Ac(a2-3)[GalNAc(b1-4)]Gal(b1-4)GlcNAc(b1-3)GalNAc
# Procedure, shortened: as §1
# [21] = molecular target: Neu5Ac(a2-3)[Neu5Ac(a2-6)]GalNAc
# Procedure, shortened: as §1
# [22] = molecular target: Neu5Ac(a2-6)Gal
# Procedure, shortened: as §1
# [23] = molecular target: Neu5Ac(a2-6)Gal(b1-3)GlcNAc(b1-3)[Gal(b1-4)GlcNAc(b1-6)]Gal(b1-4)Glc
# Procedure, shortened: as §1
# [24] = molecular target: Neu5Ac(a2-6)Gal(b1-4)Glc
# Procedure, shortened: as §1
# [25] = molecular target: Neu5Ac(a2-6)Gal(b1-4)GlcNAc
# Procedure, shortened: as §1
# [26] = molecular target: Neu5Ac(a2-6)Gal(b1-4)GlcNAc(b1-2)Man
# Procedure, shortened: as §1
# [27] = molecular target: Neu5Ac(a2-6)Gal(b1-4)GlcNAc(b1-2)Man(a1-3)Man(b1-4)GlcNAc(b1-4)GlcNAc
# Procedure, shortened: as §1
# [28] = molecular target: Neu5Ac(a2-6)Gal(b1-4)GlcNAc(b1-2)Man(a1-3)[Gal(b1-4)GlcNAc(b1-2)Man(a1-6)]Man(b1-4)GlcNAc(b1-4)GlcNAc
# Procedure, shortened: as §1
# [29] = molecular target: Neu5Ac(a2-6)Gal(b1-4)GlcNAc(b1-2)Man(a1-3)[GlcNAc(b1-2)Man(a1-6)]Man(b1-4)GlcNAc(b1-4)GlcNAc
# Procedure, shortened: as §1
# [30] = molecular target: Neu5Ac(a2-6)Gal(b1-4)GlcNAc(b1-2)Man(a1-3)[GlcNAc(b1-4)][Neu5Ac(a2-6)Gal(b1-4)GlcNAc(b1-2)Man(a1-6)]Man(b1-4)GlcNAc(b1-4)GlcNAc
# Procedure, shortened: as §1
# [31] = molecular target: Neu5Ac(a2-6)Gal(b1-4)GlcNAc(b1-2)Man(a1-3)[Man(a1-6)]Man(b1-4)GlcNAc(b1-4)GlcNAc
# Procedure, shortened: as §1
binder,measurement,setting,value
B1,glycan array binding signal (z-score),[1],-0.436
same,glycan array binding signal (z-score),[2],-1.06
same,glycan array binding signal (z-score),[3],0.174
same,glycan array binding signal (z-score),[4],1.28
same,glycan array binding signal (z-score),[5],-0.579
same,glycan array binding signal (z-score),[6],0.33
same,glycan array binding signal (z-score),[7],0.395
same,glycan array binding signal (z-score),[8],-0.428
same,glycan array binding signal (z-score),[9],-0.684
same,glycan array binding signal (z-score),[10],-0.485
same,glycan array binding signal (z-score),[11],-0.716
same,glycan array binding signal (z-score),[12],-0.557
same,glycan array binding signal (z-score),[13],0.576
same,glycan array binding signal (z-score),[14],0.902
same,glycan array binding signal (z-score),[15],-0.505
same,glycan array binding signal (z-score),[16],2.8
same,glycan array binding signal (z-score),[17],0.683
same,glycan array binding signal (z-score),[18],-0.125
same,glycan array binding signal (z-score),[19],-0.318
same,glycan array binding signal (z-score),[20],-1.11
same,glycan array binding signal (z-score),[21],1.2
same,glycan array binding signal (z-score),[22],2.53
same,glycan array binding signal (z-score),[23],-0.99
same,glycan array binding signal (z-score),[24],0.263
same,glycan array binding signal (z-score),[25],1.67
same,glycan array binding signal (z-score),[26],-0.417
same,glycan array binding signal (z-score),[27],0.591
same,glycan array binding signal (z-score),[28],-0.721
same,glycan array binding signal (z-score),[29],-0.991
same,glycan array binding signal (z-score),[30],0.077
same,glycan array binding signal (z-score),[31],0.491

# Part of the list above, bar-delimited.
binder | measurement | setting | value
B1 | glycan array binding signal (z-score) | [24] | 0.263
same | glycan array binding signal (z-score) | [25] | 1.67
same | glycan array binding signal (z-score) | [26] | -0.417
